Data: PubChem BioAssay AID540276 (National Center for Advancing Translational Sciences (NCATS), 2011)
Hit rate of the full screen: of about 300,000 compounds, about 5,400 (1.8%) were called active. The inconclusive results got no clear call from the source; some entries with a clear call stand among them for comparison. The call rests on the fitted dose curve; tested in HEK293 cells. A potency beside an inconclusive call is a rough fit, not a confirmed value.

Assay: qHTS for inhibitors of binding or entry into cells for Marburg Virus
Settings: Marburg virus pseudotyped entry inhibition, cell reporter; series mostly up to 37.8 µM
Potency means the concentration at half of the fitted maximal effect.

Structure (SMILES)	Potency
CCN1CCN(C(=O)c2ccccc2N(Cc2ccccc2)S(C)(=O)=O)CC1	inactive
CCOC(=O)N/N=C/c1ccc(N2CCOCC2)s1	inactive
COC(=O)c1[nH]c2ccc(Cl)cc2c1NC(=O)CCN1CCN(C2CCCCC2)CC1	inconclusive: 0.259 µM [inhibitor, partial curve, poor fit]
Cc1cccc2sc(N(CCCN(C)C)C(=O)c3cc4ccccc4oc3=O)nc12	inconclusive: 35.5 µM [inhibitor, single point]
CC1CCN(C(=O)CSCC(=O)O)CC1	inactive
O=C(Nc1nc2ccccc2s1)C1CCCO1 (configuration not stated)	inconclusive: 2.31 µM [activator, partial curve]
CC(=O)Nc1ccc2c(c1)ncn2C1CCCCC1	inactive
O=C(NNC(=S)Nc1ccccc1Cl)c1ccccc1Br	inactive
Cc1cc(C)cc(OCCn2c(C3CC(=O)N(c4ccccc4Cl)C3)nc3ccccc32)c1 (configuration not stated)	inconclusive: 2.51 µM [inhibitor, single point]
CCn1c(=N)n(CCO)c2ccccc21	inactive
COc1ccc(-c2noc(C3CCCN(C(=O)c4cccs4)C3)n2)cc1 (configuration not stated)	inconclusive: 23.1 µM [inhibitor, single point]
CCCCCCN1C[C@H](O)[C@@H](n2cc(C3CC3)nn2)C[C@H]1c1ccc(C)cc1	inconclusive: 19.9 µM [inhibitor, partial curve, poor fit]
CN(c1ccccc1)S(=O)(=O)c1ccc(Cl)c(C(=O)Nc2nc3ccccc3[nH]2)c1	inconclusive: 18.4 µM [inhibitor, single point]
COc1ccc(CNC(=O)COc2ccc(S(=O)(=O)N3CCCCC3)cc2Cl)cc1	inconclusive: 35.5 µM [inhibitor, single point]
COCCn1nnnc1C(C(C)C)N1CCOCC1 (configuration not stated)	inactive
CCCCNC(=O)Cn1c(=O)c2c(ncn2CCC(C)C)n(Cc2ccccc2)c1=O	inconclusive: 35.5 µM [inhibitor, single point]
CCOc1ccc(OCc2ccc(C(=O)NCC3CCCO3)o2)cc1 (configuration not stated)	inactive
COc1ccc(C2CC(=O)N(C)c3ccccc3S2)cc1 (configuration not stated)	inactive
S=C(NCC1CCCO1)Nc1ccc(Cl)cc1Cl (configuration not stated)	inactive
COc1ccc(-n2nc(C(=O)NCC(=O)N3CCCCCC3)c3ccccc3c2=O)c(OC)c1	inconclusive: 6.31 µM [inhibitor, single point]
COc1ccccc1NC(=O)CSCC(N)=O	inconclusive: 13 µM [activator, partial curve, poor fit]
CCOC(=O)c1sc(=NC(=O)/C=C/c2ccccc2)n(C)c1C	inconclusive: 35.5 µM [activator, partial curve, poor fit]
CCc1nn(C(C)C(=O)NCCN2CCN(c3cccc(C)c3C)CC2)c(=O)c2cc3occc3n12 (configuration not stated)	inconclusive: 12.6 µM [inhibitor, partial curve, poor fit]
O=C(O)CC1(CC(=O)NCc2cc(F)cc3c2OCOC3)CCCCC1	inactive

Structure (SMILES)	Potency
O=C(COc1ccc(F)cc1)Nc1nc2c(s1)CCCC2	inactive
CCOc1ccc(NS(=O)(=O)c2ccc(C(=O)N3CCCC3)cc2)cc1	inconclusive: 2.82 µM [inhibitor, partial curve, poor fit]
O=C(N/N=C/C(Cl)=C/c1ccccc1)c1ccco1	inconclusive: 3.98 µM [activator, single point]
CCN(CC)S(=O)(=O)c1cccc(NC(=O)C2CC(=O)N(c3ccc4c(c3)OCCO4)C2)c1 (configuration not stated)	inconclusive: 35.5 µM [inhibitor, single point]
O=C(CC12CC3CC(CC(C3)C1)C2)NC(=S)Nc1ccc(CN2CCOCC2)cc1	inconclusive: 11.2 µM [inhibitor, partial curve, poor fit]
O=C(NC(=S)Nc1nc2ccccc2s1)c1cccs1	inconclusive: 0.259 µM [activator, partial curve, poor fit]
O=C(Nc1cccnc1)c1ccccc1-c1nc(-c2ccccc2F)no1	inconclusive: 20.6 µM [inhibitor, single point]
CCCCCCn1c(COc2ccccc2F)nnc1SCC(=O)N1c2ccccc2NC(=O)C1(C)C	inconclusive: 20.6 µM [inhibitor, single point]
CCOc1ccc(-n2c(SCc3nc(-c4ccc(OC)cc4)no3)nnc2-c2ccncc2)cc1	inactive
CC(CNS(=O)(=O)c1ccc(Cl)cc1)n1cncn1 (configuration not stated)	inactive
Cc1csc(NC(=O)CSc2nnc3c4ccccc4nc(C(C)(C)C)n23)n1	inconclusive: 2.59 µM [inhibitor, full curve, poor fit]
Cc1ccc(CSCc2nc3ccccc3[nH]2)cc1	inconclusive: 35.5 µM [inhibitor, single point]
COc1cccc(/C=C/C(=O)c2cccc([N+](=O)[O-])c2)c1OC	inconclusive: 35.5 µM [inhibitor, single point]
CCOc1ccccc1OCCCC(=O)Nc1sccc1C(N)=O	inconclusive: 10 µM [inhibitor, partial curve, poor fit]
CCCNC(=O)c1cc2nc(-c3ccc(Br)cc3)cc(C(F)(F)F)n2n1	inactive
Fc1ccc(Nc2ccnc(Nc3ccc(F)cc3)n2)cc1	inactive
c1ccc(Sc2ccccc2CN2CCCC2)cc1	inconclusive: 14.1 µM [inhibitor, partial curve, poor fit]
Cn1cccc1/C=C1\SC(=O)N(c2ccccc2)C1=O	inactive
COc1cc(SC)ccc1C(=O)NCc1ccc(C)cc1	inactive
CC(C)(C)C(=O)O[C@H]1CC[C@@]2(C)C(=CC(=O)C3C2CC[C@]2(C)C(=O)[C@H](O)CC32)C1 (some centres not stated)	inconclusive: 35.5 µM [inhibitor, single point]
Cc1c(C(=O)N2CCC(c3nc4ccccc4s3)CC2)oc2cc(Br)ccc12	inactive
c1ccc(-c2ccc(-c3cnc4n3CCCCC4)cc2)cc1	inconclusive: 35.5 µM [inhibitor, single point]
COc1ccc(C(C)=O)cc1CN1C(=O)NC2(CCCCC2C)C1=O (configuration not stated)	inconclusive: 0.316 µM [activator, partial curve, poor fit]

Laid out differently: 3 of the compounds above
Structure (SMILES) | Potency
CCn1c(=N)n(CCO)c2ccccc21 | inactive
COc1ccc(-c2noc(C3CCCN(C(=O)c4cccs4)C3)n2)cc1 (configuration not stated) | inconclusive: 23.1 µM [inhibitor, single point]
CCCCCCN1C[C@H](O)[C@@H](n2cc(C3CC3)nn2)C[C@H]1c1ccc(C)cc1 | inconclusive: 19.9 µM [inhibitor, partial curve, poor fit]
